In US20210095028A1 (NANJING LEGEND BIOTECH, published 2021):
These are yes or no findings as the source states them, for the method shown. Some results given as binding are weak or reduced against the parent protein; the word gives no strength.

Target: cynomolgus TIGIT over-expressed on CHO-K1 cells (cynomolgus)
Assay: FACS, CHO-K1 cells over-expressing cynomolgus TIGIT

binding | Binder
binds | 121C2F10B5 (antibody, V domains shown, Mouse monoclonal antibody; also called mouse anti-human TIGIT monoclonal antibody 121C2F10B5) VH: EVQLVESGGDLVKPGGSLKLSCAASGFTFSTYGMSWVRQTPDKRLEWVATISSGGSYTYYPDSVKGRFTISRDNAKNTLYLQMSSLKSEDTAMYYCARQVHYFYAMDYWGQGTSVTVSS VL: DIQMTQSPASLSVSVGETVTITCRASENIYSNLAWYQQKQGKSPQVLVYAATNLADGVPSRFSGSRSGTQYSLKINSLQSEDFGSYYCQHFWDNAYTFGGGTKLEIK
binds | 104G12E12G2 (antibody, V domains shown, Mouse monoclonal antibody; also called mouse anti-human TIGIT monoclonal antibody 104G12E12G2) VH: EVQLQQSGPELVKPGASVKISCKASGYSFTGSYIHWVKQNHVKTLEWIGRINPHNGPTSYNQNFKGKASLTVDLSSSTAYMEVHSLTSEDSAVYYCVRYDGYYGGALDYWGQGTSVTVSS VL: DIQMTQSPSSLSASLGERVSLTCRASQEISGYLSWLQQKPDGTIKRLIYAASTLDSGVPKRFSGSRSGSDYSLTISSLESEDFADYYCLQYASYPYTFGGGTKLEIK
binds | 92E9D4B4 (antibody, V domains shown, Mouse monoclonal antibody; also called mouse anti-human TIGIT monoclonal antibody 92E9D4B4) VH: EVMLVESGGGLVKPGGSLKLSCAASGFTFSFYTMSWVRQTPEKRLEWVATISGGGGDTYYPDNVKGRFTISRDNAKNNLYLQMSSLRSEDTALYYCARSLPVDFWGQGTTLTVSS VL: QIVLTQSPAIMSASLGERVTMTCTASSSVSSTYLHWYQQKPGSSPKFWIYSTSNMASGVPARFSGSGSGTSYSLTISSMEAEDAATYYCHYYHRSPYTFGGGTKLEIK
binds | 64G1E9B4VH1.M1_VL1.M1 (antibody, human IgG1, V domains shown, Humanized antibody, variable domains fused with the constant region of human IgG1; also called 64G1VH1.M1_VL1.M1) VH: EVQLVQSGAEVKKPGSSVKVSCKASGYTFTEHVIHWVRQAPGQGLEWMGGFNPNHGGTIYNQIFRGRVTITADKSTSTAYMELSSLRSEDTAVYYCARAAKLLFAMDYWGQGTTVTVSS VL: DIQMTQSPSSLSASVGDRVTITCRASQHVSNAVVWYQQKPGKAPKLLIYSPSYRFTGVPSRFSGSGSGTDFTLTISSLQPEDFATYYCQQHYSTPWTFGGGTKVEIK
binds | 64G1E9B4 chimeric (antibody, V domains shown, also called 64G1 Chimeric) VH: EVQLQQSGPELVKPGASVKISCKTSGYTFTEHVIHWVKQSHGKSLEWIGGFNPNHDGTIYNQIFRGKATLTVDKSSSTAYMELRSLTSEDSAVYFCTRAAKLLFAMDYWGQGTSVTVSS VL: DIVMTQSHKFMSTSIGDRVSITCKASQHVSNAVVWYQQKPGQSPKLLIYSPSYRFTGVPDRFTGSGSGTDFTFTISSVQAEDLAVYYCQQHYSTPWTFGGGTKLEIK

More lines, now with the values behind:

Binder | binding
139E2C2D2 (antibody, V domains shown, Mouse monoclonal antibody; also called mouse anti-human TIGIT monoclonal antibody 139E2C2D2) VH: EVQLVESGGDLVKPGGSLKLSCAASGFTFSSYGMSWVRQTPDKRLEWVAIISSGGNYTYYPDSVKGRFTISRDNAKNTLYLQMSSLKSEDTAMYYCARQIHYFFAMDYWGQGTSVTVSS VL: DIQMTQSPASLSVSVGETVTITCRASENIYSNLAWYQQKQGKSPQLLVYAATNLADGAPSRFSGSRSGTQYSLKINSLQSEDFGSYYCQHFWGTAYTFGGGTKLEIK | binds
128E3G7F5 (antibody, V domains shown, Mouse monoclonal antibody; also called mouse anti-human TIGIT monoclonal antibody 128E3G7F5) VH: EVLLQQSGPELVKTGASVKISCKASGYSFTAYYMHWVKQSHGKSLEWIGYISCYNGATTYNQKFKGKATFTVDTSSTTAYMQFNSLTSEDSAVYYCARRVYYGYDEALVYWGQGTSVTVSS VL: DIVMTQSPSSLSVSAGEKVTMTCKSSQSLLNSGNQKNYLAWYQQKPGQPPKLLIYGASTRGSGVPDRFTGSGSGTDFTLTISSVQAEDLAVYYCQNDHSYPYTFGGGTKLEIK | binds
100C4E7D11 (antibody, V domains shown, Mouse monoclonal antibody; also called mouse anti-human TIGIT monoclonal antibody 100C4E7D11) VH: EVMLVESGGGLVKPGGSLKLSCAASGFTFSFYTMSWVRQTPEKRLEWVATISSGGGSTYYSDSVKGRFTISRDNAKNNLYLQMTSLRSEDTALYYCSRSLPVDYWGQGTTLTVSS VL: QIVLTQSPAIMSASLGERVTMTCTASSSVSSTYLHWYQQKPGSSPKLWIYSTSNLASGVPARFSGSGSGTSYSLTISSMEAEDAATYYCHLYHHSPYTFGGGTKLEIK | binds
83G6H11C12 (antibody, V domains shown, Mouse monoclonal antibody; also called mouse anti-human TIGIT monoclonal antibody 83G6H11C12) VH: EVMLVESGGGLVKPGGSLKLSCAASGFTFSFYTMSWVRQTPEKRLEWVATISSGGGSTYYSDSVKGRFTISRDNAKNNLYLQMTSLRSEDTALYYCSRSLPVDYWGQGTTLTVSS VL: QIVLTQSPAIMSASLGERVTMTCTASSSVSSSYLHWYQQKPGSSPKLWIYSTSNLASGVPARFSGSGSGTSYSLTISSMEAEDAATYYCHLYHHSPYTFGGGTKLEIK | binds
64G1E9B4 (antibody, V domains shown, Mouse monoclonal antibody; also called mouse anti-human TIGIT monoclonal antibody 64G1E9B4) VH: EVQLQQSGPELVKPGASVKISCKTSGYTFTEHVIHWVKQSHGKSLEWIGGFNPNHDGTIYNQIFRGKATLTVDKSSSTAYMELRSLTSEDSAVYFCTRAAKLLFAMDYWGQGTSVTVSS VL: DIVMTQSHKFMSTSIGDRVSITCKASQHVSNAVVWYQQKPGQSPKLLIYSPSYRFTGVPDRFTGSGSGTDFTFTISSVQAEDLAVYYCQQHYSTPWTFGGGTKLEIK | binds
64G1E9B4VH1_VL1.M1 (antibody, human IgG1, V domains shown, Humanized antibody, variable domains fused with the constant region of human IgG1; also called 64G1VH1_VL1.M1) VH: EVQLVQSGAEVKKPGSSVKVSCKASGYTFTEHVIHWVRQAPGQGLEWMGGFNPNHDGTIYNQIFRGRVTITADKSTSTAYMELSSLRSEDTAVYYCARAAKLLFAMDYWGQGTTVTVSS VL: DIQMTQSPSSLSASVGDRVTITCRASQHVSNAVVWYQQKPGKAPKLLIYSPSYRFTGVPSRFSGSGSGTDFTLTISSLQPEDFATYYCQQHYSTPWTFGGGTKVEIK | binds
100C4E7D11VH1_VL1 (antibody, V domains shown, Humanized antibody, variable domains fused with the constant region of human IgG1; also called 100C4VH1_VL1) VH: EVQLVESGGGLVKPGGSLRLSCAASGFTFSFYTMSWVRQAPGKGLEWVSTISSGGGSTYYSDSVKGRFTISRDNAKNSLYLQMNSLRAEDTAVYYCARSLPVDYWGQGTTVTVSS VL: EIVLTQSPGTLSLSPGERATLSCTASSSVSSTYLHWYQQKPGQAPRLLIYSTSNLASGIPDRFSGSGSGTDFTLTISRLEPEDFAVYYCHLYHHSPYTFGGGTKVEIK | binds
100C4E7D11 chimeric (antibody, V domains shown, also called 100C4 Chimeric) VH: EVMLVESGGGLVKPGGSLKLSCAASGFTFSFYTMSWVRQTPEKRLEWVATISSGGGSTYYSDSVKGRFTISRDNAKNNLYLQMTSLRSEDTALYYCSRSLPVDYWGQGTTLTVSS VL: QIVLTQSPAIMSASLGERVTMTCTASSSVSSTYLHWYQQKPGSSPKLWIYSTSNLASGVPARFSGSGSGTSYSLTISSMEAEDAATYYCHLYHHSPYTFGGGTKLEIK | binds
